From patent publication US20200207989A1, “FLUORESCENT PROBE FOR ALDH3A1 DETECTION” (The University of Tokyo, priority 2016, published 2020)
Some entries share one result that the patent states for a list of compounds.

Assay: HPLC (LC/MS) retention time as measure of hydrophilicity / membrane permeability
Assay type: physicochemical
Conditions: C18 column, 20% B 2.5 min, 20%-->100% B 5 min, 500 μL/min, neutral conditions, mean±SD of three tests
Description: In the present invention, it is preferable to use the retention time on an HPLC chromatogram as the measure of hydrophilicity.
HPLC conditions: taking solvent A to be 0.01 M ammonium formate/water and solvent B to be 80% acetonitrile 0.01 M ammonium formate/water, chromatography is carried out under conditions of 20% solvent B for 2.5 minutes followed by a 5-minute linear gradient of solvent B from 20% to 100% (flow rate 500 μL/min).
A C18 column (HP 3 μm, inner diameter: 2.1 mm, length: 150 mm, GL Science), for example, can be used suitably as the column.
The water solubility was verified by LC/MS under neutral conditions to compare the membrane permeability of the five probes produced above and ALDEFLUOR. The reaction was stopped after advancing the reaction to the point that each probe was present as both a carboxylic acid form and an aldehyde form using a suitable isoform and concentration of ALDH, and analysis was conducted by LC/MS (Agilent 1200/6130 quadrupole LC/MS system). A C18 column (HP 3 μm, inner diameter: 2.1 mm, length: 150 mm, GL Science) was used as the column. […] The probe containing BODIPY was detected by the absorbance at a wavelength of 504 nm and the probe containing TG at a wavelength of 495 nm, and m/z of the MS spectrum at each peak was confirmed to agree with the expected m/z. Three independent tests were run, and the mean±SD was calculated. […]

Row | Substance | Retention Time, Aldehyde form (listed as compound 3) [min] | Retention Time, Aldehyde form (listed as compound 1) [min]
1 | 2-(N-ethyl-N-(4-formylphenyl)amino)ethyl-3-(1,3-dimethyl-4,4-difluoro-4-bora-3a,4a-diaza-s-indacen-5-yl)-propionamide [Probe 3] | > 8 | –
2 | N-(4-formylbenzyl)-3-(1,3-dimethyl-4,4-difluoro-4-bora-3a,4a-diaza-s-indacen-5-yl)-propionamide [Probe 1] | – | > 8
